From PMC9346113, “Therapeutic impact of BET inhibitor BI 894999 treatment: backtranslation from the clinic” (British Journal of Cancer, 2022)

System: T1, BRD4-NUT
T1 construct: endogenous in cells; host or cells: Ty-82 NUT carcinoma cells
Experiment: Immunofluorescence staining of NUT megadomains, Ty-82
Assay type: cell-based, human
Conditions: 30 min treatment
Experimental: Cells were seeded on four-well chamber slides (Merck Millipore, #PEZGS0416). After treatment, cells were fixed with 4% PFA (16% Solution, Thermo Fischer #28908 Paraformaldehyde, diluted 1:4 in PBS), permeabilised with 0,1% TX-100 (Sigma #93443, diluted in PBS). After blocking in blocking buffer (10% normal goat serum, Sigma #G9023–10ml, diluted in blocking solution: 2% BSA/PBS, Sigma #A7284–50ml, diluted 1:15 in PBS), the first antibody mAB rabbit anti-NUT 1:1000 (clone C52B1, Cell Signaling #3625) in blocking buffer was added, followed by incubation with the 2nd antibody goat anti-rabbit Alexa*488 1:1000 (Thermo Fisher, #A-11008) in blocking buffer in the dark. Cells were mounted with ProLong Gold Antifade Mountant with DAPI (Thermo Fisher, #P36931) and analysed using a Laser scanning microscope (LSM700).
[…] Upper row: antibody against NUT, lower row: DAPI.
Immunofluorescence staining of NUT megadomains on NC Ty-82 treated with BI with BI 894999 30nM for 1 h, then changed to 10 nM or 5 nM or 2.5 nM or control for 24 h.

`CCNC(=O)C[C@@H]1N=C(c2ccc(Cl)cc2)c2cc(OC)ccc2-n2c(C)nnc21` [GSK525762] was tested, and the “concentration at which BRD4-NUT detaches from chromatin / is re-distributed” value was 1000 nM.
